Record: PubChem BioAssay AID602196 (INSERM, 2012)

Purpose: 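Knock-downs that protect lung cancer cells from cisplatin or sensitise them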
System: human A549 lung cancer cells
Knock-down reagent: siRNA pair against human genes
Timing: 48 h transfection before cisplatin; time from cisplatin to read-out not stated
Treatment: cisplatin at a dose killing half of control-siRNA cells; exact dose and duration not given
Detection: 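Shift in cisplatin death relative to control siRNA, from -50 (all cells die) to +50 (no cells die); siRNAs harmful on their own scored 0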
Direction: two-siRNA summed score (-2 to +2): higher = both siRNAs protect from cisplatin killing; -2 means both sensitise; mean protection from cisplatin (shift in death) and protection from cisplatin (shift in death), siRNA C and protection from cisplatin (shift in death), siRNA D: higher = protection from cisplatin killing
Active means: 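Each siRNA scores 0 if harmful alone by LDH or WST-1, otherwise +1 if it reduces and -1 if it increases cisplatin killing; a gene is active when both siRNAs agree (sum +2 or -2)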
Meaning of the calls: active = both siRNAs shift cisplatin killing the same way; inactive = no consistent shift, or siRNA harmful alone
Here is one part, drawn at random, of about 23,000 reagents. Of all reagents, 455 (2%) got an active call. 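Active includes both protection and sensitisation; some change values fall well beyond the stated -50 to +50 range.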 Not given: the amount of reagent.

| target | two-siRNA summed score (-2 to +2) | mean protection from cisplatin (shift in death) (%) | protection from cisplatin (shift in death), siRNA C (%) | protection from cisplatin (shift in death), siRNA D (%) | outcome |
| --- | --- | --- | --- | --- | --- |
| MAP3K5 (mitogen-activated protein kinase kinase kinase 5) | 0 | -5 | -9.6 | -0.5 | inactive |
| LOC345711 | 0 | 4.7 | 4.2 | 5.2 | inactive |
| ATP5F1A (ATP synthase F1 subunit alpha) | 0 | 1.2 | -2.5 | 4.9 | inactive |
| SMURF1 (SMAD specific E3 ubiquitin protein ligase 1) | -1 | -14.7 | 2.3 | -31.6 | inactive |
| PSMD11 (proteasome 26S subunit, non-ATPase 11) | 1 | 5.2 | -14.4 | 24.7 | inactive |
| FSTL3 (follistatin like 3) | 0 | -6.5 | -5.1 | -7.8 | inactive |
| PDZK1IP1 (PDZK1 interacting protein 1) | 1 | 10.9 | 18.7 | 3.1 | inactive |
| P2RX7 (purinergic receptor P2X 7) | 0 | 13.5 | 12 | 14.9 | inactive |
| OR51D1 (olfactory receptor family 51 subfamily D member 1) | 0 | 11 | 26.8 | -4.7 | inactive |
| LOC388166 | 1 | 7 | -3.3 | 17.2 | inactive |
| ALDH3B2 (aldehyde dehydrogenase 3 family member B2) | -1 | -11.3 | -0.4 | -22.1 | inactive |
| TTLL10 (tubulin tyrosine ligase like 10) | 0 | 11 | 7.7 | 14.4 | inactive |
| LOC389329 | 1 | 22.8 | 19.7 | 26 | inactive |
| PFKM (phosphofructokinase, muscle) | 0 | 2.8 | 0.7 | 4.8 | inactive |
| OR2A14 (olfactory receptor family 2 subfamily A member 14) | 0 | 3.4 | 8.3 | -1.5 | inactive |
| PHLDA2 (pleckstrin homology like domain family A member 2) | 0 | 1.9 | 1.3 | 2.4 | inactive |
| NEU3 (neuraminidase 3) | 0 | 5.4 | 1.4 | 9.3 | inactive |
| LOC339997 | 2 | 15.7 | 15.1 | 16.3 | active |
| PCDHAC1 (protocadherin alpha subfamily C, 1) | 0 | 6.7 | 10.6 | 2.8 | inactive |
| DLST (dihydrolipoamide S-succinyltransferase) | 0 | 8.5 | 9.1 | 7.9 | inactive |
| LOC400741 | 0 | -10.5 | -24 | 2.9 | inactive |
| SH3BGRL3 (SH3 domain binding glutamate rich protein like 3) | 0 | -4.3 | 6.3 | -14.8 | inactive |
| DCP2 (decapping mRNA 2) | 0 | 0.1 | -4.7 | 4.8 | inactive |
| ITPR3 (inositol 1,4,5-trisphosphate receptor type 3) | 0 | 1.9 | 12.6 | -8.8 | inactive |
| C14orf180 (chromosome 14 open reading frame 180) | 1 | 14.1 | 15.7 | 12.5 | inactive |
| ZNF572 (zinc finger protein 572) | 2 | 12.1 | 13 | 11.1 | active |
| DGCR6 (DiGeorge syndrome critical region gene 6) | 0 | 0.3 | 8.8 | -8.1 | inactive |
| GPSM3 (G protein signaling modulator 3) | 0 | -0.4 | 9 | -9.7 | inactive |
| ACP5 (acid phosphatase 5, tartrate resistant) | 0 | 11.8 | 22.5 | 1 | inactive |
| DNAAF8 (dynein axonemal assembly factor 8) | 0 | 9.6 | -1.9 | 21 | inactive |
| LOC440982 | 1 | 11.9 | 14.3 | 9.5 | inactive |
| C16orf54 (chromosome 16 open reading frame 54) | 0 | 1.8 | -8.3 | 11.8 | inactive |
| ZSCAN12 (zinc finger and SCAN domain containing 12) | 0 | 5.9 | 3.9 | 7.8 | inactive |
| UBE2J2 (ubiquitin conjugating enzyme E2 J2) | 0 | 1.7 | 3.9 | -0.4 | inactive |
| MIOX (myo-inositol oxygenase) | 0 | -0.8 | 13.2 | -14.8 | inactive |
| ZNF143 (zinc finger protein 143) | 0 | 15.8 | 11.9 | 19.8 | inactive |
| MCFD2 | 1 | 10.3 | 18 | 2.5 | inactive |
| LOC441239 | 0 | 4.5 | 11.2 | -2.2 | inactive |
| MRPL33 (mitochondrial ribosomal protein L33) | 0 | 13.1 | 16.2 | 10.1 | inactive |
| FAM219B (family with sequence similarity 219 member B) | 0 | -7.5 | -9.5 | -5.5 | inactive |
| CREB3L1 (cAMP responsive element binding protein 3 like 1) | 0 | 14 | 8.3 | 19.7 | inactive |
| BARHL2 (BarH like homeobox 2) | 1 | 10.6 | 9.8 | 11.3 | inactive |
| LIN7C (lin-7 cell polarity scaffold C) | 0 | 8.5 | 11 | 5.9 | inactive |
| H2AZ2 (H2A.Z variant histone 2) | 0 | 0.6 | -3 | 4.2 | inactive |
| TRIM46 (tripartite motif containing 46) | 0 | 14.9 | 3.9 | 25.9 | inactive |
| DAB2IP (DAB2 interacting protein) | 0 | 9.4 | 10.1 | 8.7 | inactive |
| ATF6 (activating transcription factor 6) | 0 | -0.7 | -0.6 | -0.8 | inactive |
| SLC35E4 | 0 | 3.3 | -1.5 | 8.1 | inactive |
| CORT (cortistatin) | 0 | 1.2 | 11.2 | -8.9 | inactive |
| OR56B1 (olfactory receptor family 56 subfamily B member 1) | 0 | 0.3 | -0.4 | 0.9 | inactive |
| LIM2 (lens intrinsic membrane protein 2) | -1 | -17.9 | -31.9 | -3.9 | inactive |
| ZSCAN23 (zinc finger and SCAN domain containing 23) | 0 | 1.3 | -4.8 | 7.4 | inactive |
| SPRY1 (sprouty RTK signaling antagonist 1) | 0 | 0.5 | 2.9 | -2 | inactive |
| EME1 (essential meiotic structure-specific endonuclease 1) | 0 | 5 | 7.9 | 2 | inactive |
| PNMA3 (PNMA family member 3) | 1 | 6.5 | -5.2 | 18.2 | inactive |
| DPY30 (dpy-30 histone methyltransferase complex regulatory subunit) | 0 | 2 | -0.9 | 4.9 | inactive |
| OR10S1 (olfactory receptor family 10 subfamily S member 1) | 0 | 3 | 10.2 | -4.1 | inactive |
| LOC388231 | 1 | 14.8 | 3.2 | 26.3 | inactive |
| DRD4 (dopamine receptor D4) | -1 | 1.6 | -15.3 | 18.5 | inactive |
| FRMD4A (FERM domain containing 4A) | 0 | 11.2 | 9.5 | 12.9 | inactive |
| GCH1 (GTP cyclohydrolase 1) | 0 | 3.1 | 9.1 | -2.8 | inactive |
| RALGPS2 (Ral GEF with PH domain and SH3 binding motif 2) | 0 | 5.6 | 0.9 | 10.3 | inactive |
| CAPN9 (calpain 9) | 0 | -3.2 | 0.5 | -7 | inactive |
| SULT1B1 (sulfotransferase family 1B member 1) | 0 | 13.1 | 21.2 | 5.1 | inactive |
| WDR55 (WD repeat domain 55) | 0 | -3.8 | 1.8 | -9.3 | inactive |
| KIF12 (kinesin family member 12) | -1 | -5.6 | 17.5 | -28.7 | inactive |
| SSX9P (SSX family member 9, pseudogene) | 0 | -2.7 | -8 | 2.6 | inactive |
| LOC442483 | 0 | 6.9 | 6.5 | 7.3 | inactive |
| TMEM8B (transmembrane protein 8B) | 0 | -1.5 | -1.7 | -1.4 | inactive |
| GSDMD (gasdermin D) | 0 | 9.5 | 15.8 | 3.2 | inactive |
| CERS1 (ceramide synthase 1) | 0 | 16.5 | 13.5 | 19.6 | inactive |
| LOC253665 | 0 | 12.9 | 6.4 | 19.5 | inactive |
| LOC440597 | 1 | 10.3 | 0.6 | 20 | inactive |

Copied from the listing, 6 entries:
| target | two-siRNA summed score (-2 to +2) | mean protection from cisplatin (shift in death) (%) | protection from cisplatin (shift in death), siRNA C (%) | protection from cisplatin (shift in death), siRNA D (%) | outcome |
| --- | --- | --- | --- | --- | --- |
| LIN7C (lin-7 cell polarity scaffold C) | 0 | 8.5 | 11 | 5.9 | inactive |
| H2AZ2 (H2A.Z variant histone 2) | 0 | 0.6 | -3 | 4.2 | inactive |
| TRIM46 (tripartite motif containing 46) | 0 | 14.9 | 3.9 | 25.9 | inactive |
| DAB2IP (DAB2 interacting protein) | 0 | 9.4 | 10.1 | 8.7 | inactive |
| ATF6 (activating transcription factor 6) | 0 | -0.7 | -0.6 | -0.8 | inactive |
| SLC35E4 | 0 | 3.3 | -1.5 | 8.1 | inactive |
